Results: the supplement of paper PMC10849652
The list shows a part of the results.

By UniProt entry, the sequences of proteins in these tests, tags left out. Where a name states a change or a piece, a line headed by the entry shows the natural chain unless it says otherwise.
UniProt Q9NRS6: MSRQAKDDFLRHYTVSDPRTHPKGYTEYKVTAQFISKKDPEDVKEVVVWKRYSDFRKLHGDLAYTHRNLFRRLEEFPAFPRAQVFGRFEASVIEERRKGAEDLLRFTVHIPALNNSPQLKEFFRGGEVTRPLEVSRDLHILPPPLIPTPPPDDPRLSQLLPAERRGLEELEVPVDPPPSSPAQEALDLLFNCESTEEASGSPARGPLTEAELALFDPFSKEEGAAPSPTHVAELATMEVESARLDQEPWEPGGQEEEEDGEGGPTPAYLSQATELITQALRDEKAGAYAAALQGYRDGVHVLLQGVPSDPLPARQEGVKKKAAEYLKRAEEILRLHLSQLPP
UniProt Q14683: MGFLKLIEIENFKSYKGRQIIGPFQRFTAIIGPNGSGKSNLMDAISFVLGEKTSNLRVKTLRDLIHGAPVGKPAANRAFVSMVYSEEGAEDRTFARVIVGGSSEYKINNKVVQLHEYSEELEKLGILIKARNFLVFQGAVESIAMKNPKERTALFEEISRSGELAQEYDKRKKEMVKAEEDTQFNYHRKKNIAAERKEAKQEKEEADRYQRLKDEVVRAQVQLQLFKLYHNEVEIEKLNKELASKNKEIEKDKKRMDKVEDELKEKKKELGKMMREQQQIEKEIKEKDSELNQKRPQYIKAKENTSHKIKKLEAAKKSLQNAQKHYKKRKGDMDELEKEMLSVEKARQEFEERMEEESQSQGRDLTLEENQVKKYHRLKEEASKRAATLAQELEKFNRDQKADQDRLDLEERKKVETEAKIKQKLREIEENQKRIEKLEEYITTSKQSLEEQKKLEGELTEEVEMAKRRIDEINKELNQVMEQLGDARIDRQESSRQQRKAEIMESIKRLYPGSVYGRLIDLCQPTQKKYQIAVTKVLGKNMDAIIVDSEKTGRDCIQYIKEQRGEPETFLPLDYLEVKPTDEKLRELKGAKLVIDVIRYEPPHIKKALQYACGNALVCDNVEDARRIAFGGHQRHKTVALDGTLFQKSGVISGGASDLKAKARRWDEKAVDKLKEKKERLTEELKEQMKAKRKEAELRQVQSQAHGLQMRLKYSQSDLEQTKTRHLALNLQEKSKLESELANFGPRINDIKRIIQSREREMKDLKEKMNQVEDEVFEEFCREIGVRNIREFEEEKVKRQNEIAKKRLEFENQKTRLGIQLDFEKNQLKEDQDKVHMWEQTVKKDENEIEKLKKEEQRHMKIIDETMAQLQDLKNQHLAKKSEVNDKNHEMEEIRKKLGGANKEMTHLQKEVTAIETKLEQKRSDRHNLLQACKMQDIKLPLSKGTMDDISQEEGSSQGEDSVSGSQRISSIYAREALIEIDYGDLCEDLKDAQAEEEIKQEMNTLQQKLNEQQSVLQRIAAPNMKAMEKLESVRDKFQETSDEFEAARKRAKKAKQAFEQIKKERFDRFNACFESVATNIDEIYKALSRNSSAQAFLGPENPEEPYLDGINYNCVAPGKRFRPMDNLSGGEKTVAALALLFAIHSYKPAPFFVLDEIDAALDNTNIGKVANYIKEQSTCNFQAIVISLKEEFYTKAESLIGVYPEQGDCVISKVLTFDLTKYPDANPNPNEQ
UniProt Q9BX66: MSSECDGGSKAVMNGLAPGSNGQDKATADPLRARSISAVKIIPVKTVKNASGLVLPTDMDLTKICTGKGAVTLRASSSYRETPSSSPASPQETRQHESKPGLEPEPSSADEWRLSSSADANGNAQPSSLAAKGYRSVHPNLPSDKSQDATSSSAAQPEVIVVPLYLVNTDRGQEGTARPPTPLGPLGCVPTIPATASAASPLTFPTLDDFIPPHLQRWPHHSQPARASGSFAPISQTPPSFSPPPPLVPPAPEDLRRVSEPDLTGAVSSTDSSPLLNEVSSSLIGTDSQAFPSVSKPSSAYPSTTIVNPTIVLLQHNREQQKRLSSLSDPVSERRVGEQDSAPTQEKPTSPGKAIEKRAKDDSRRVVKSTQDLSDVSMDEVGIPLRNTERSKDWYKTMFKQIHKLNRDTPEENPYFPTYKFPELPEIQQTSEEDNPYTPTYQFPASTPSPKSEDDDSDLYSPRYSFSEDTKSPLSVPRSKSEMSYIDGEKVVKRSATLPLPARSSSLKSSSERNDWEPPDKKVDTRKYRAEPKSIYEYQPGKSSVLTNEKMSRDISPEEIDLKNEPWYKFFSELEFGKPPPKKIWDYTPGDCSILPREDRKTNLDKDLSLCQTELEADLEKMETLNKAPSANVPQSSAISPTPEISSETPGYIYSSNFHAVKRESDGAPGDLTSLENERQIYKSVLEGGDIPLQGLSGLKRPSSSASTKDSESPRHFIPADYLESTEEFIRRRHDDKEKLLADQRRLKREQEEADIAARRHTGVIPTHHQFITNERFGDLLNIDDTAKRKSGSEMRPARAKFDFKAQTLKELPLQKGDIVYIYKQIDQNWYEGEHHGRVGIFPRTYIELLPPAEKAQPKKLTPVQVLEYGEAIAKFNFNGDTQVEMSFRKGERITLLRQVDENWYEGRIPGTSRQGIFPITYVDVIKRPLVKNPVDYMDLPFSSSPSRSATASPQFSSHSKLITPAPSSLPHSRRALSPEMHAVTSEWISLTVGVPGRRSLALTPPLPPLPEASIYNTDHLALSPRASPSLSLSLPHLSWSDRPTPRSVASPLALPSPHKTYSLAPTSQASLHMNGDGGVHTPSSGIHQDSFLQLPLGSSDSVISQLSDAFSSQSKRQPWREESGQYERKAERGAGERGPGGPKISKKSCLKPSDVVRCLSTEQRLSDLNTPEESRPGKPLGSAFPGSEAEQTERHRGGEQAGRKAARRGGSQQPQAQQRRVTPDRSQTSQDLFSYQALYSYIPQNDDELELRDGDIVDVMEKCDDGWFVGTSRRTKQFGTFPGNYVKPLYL
UniProt Q969G3, whole entry, looked up: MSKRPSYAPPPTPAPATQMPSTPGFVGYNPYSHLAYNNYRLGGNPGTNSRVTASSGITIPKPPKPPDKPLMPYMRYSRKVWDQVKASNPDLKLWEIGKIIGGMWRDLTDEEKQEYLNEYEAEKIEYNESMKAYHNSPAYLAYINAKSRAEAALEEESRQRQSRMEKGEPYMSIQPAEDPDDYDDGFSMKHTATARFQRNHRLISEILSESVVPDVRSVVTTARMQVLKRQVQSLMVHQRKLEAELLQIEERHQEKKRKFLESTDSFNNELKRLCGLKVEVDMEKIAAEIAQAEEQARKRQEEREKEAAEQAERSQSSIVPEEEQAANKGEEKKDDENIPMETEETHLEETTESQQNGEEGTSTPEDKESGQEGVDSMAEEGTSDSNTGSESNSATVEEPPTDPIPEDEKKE
UniProt Q9NRH2: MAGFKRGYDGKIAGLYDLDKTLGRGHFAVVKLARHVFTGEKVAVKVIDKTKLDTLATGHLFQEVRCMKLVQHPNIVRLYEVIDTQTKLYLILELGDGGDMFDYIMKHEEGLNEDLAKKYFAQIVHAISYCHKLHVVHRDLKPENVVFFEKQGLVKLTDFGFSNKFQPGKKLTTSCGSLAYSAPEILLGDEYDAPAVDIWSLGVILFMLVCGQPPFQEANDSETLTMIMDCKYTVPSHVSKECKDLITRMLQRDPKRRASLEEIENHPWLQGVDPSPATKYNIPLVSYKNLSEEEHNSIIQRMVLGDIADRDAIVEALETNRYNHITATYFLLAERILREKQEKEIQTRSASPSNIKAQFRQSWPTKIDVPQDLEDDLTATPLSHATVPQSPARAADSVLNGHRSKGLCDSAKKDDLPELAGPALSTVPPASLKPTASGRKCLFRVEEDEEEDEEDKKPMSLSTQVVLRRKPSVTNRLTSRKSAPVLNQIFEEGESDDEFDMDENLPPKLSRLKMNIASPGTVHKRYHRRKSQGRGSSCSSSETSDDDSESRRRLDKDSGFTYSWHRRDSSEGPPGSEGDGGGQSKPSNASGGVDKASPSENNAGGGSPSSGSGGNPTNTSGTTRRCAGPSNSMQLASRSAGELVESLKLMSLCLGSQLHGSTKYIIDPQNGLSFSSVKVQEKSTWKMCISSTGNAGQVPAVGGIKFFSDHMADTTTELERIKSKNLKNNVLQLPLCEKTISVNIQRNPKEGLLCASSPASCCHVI
UniProt O60504: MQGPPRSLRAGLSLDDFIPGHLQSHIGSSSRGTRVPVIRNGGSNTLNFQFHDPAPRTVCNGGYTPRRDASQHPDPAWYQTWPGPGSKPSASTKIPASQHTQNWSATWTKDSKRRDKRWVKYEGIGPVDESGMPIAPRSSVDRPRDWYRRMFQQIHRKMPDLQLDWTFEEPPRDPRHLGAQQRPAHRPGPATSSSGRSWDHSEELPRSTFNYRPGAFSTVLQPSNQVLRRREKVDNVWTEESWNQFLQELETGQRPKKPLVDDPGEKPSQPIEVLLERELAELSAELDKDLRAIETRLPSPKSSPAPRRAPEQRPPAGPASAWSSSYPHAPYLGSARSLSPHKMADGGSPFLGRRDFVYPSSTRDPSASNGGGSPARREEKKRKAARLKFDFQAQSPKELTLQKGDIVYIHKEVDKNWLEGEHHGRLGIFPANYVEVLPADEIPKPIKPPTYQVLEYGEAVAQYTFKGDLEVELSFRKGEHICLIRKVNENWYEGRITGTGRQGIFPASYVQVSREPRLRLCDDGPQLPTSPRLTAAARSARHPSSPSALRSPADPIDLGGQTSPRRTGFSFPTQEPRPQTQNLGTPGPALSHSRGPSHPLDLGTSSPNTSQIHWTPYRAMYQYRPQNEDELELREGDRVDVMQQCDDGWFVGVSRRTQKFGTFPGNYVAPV
UniProt P62308, whole entry, looked up: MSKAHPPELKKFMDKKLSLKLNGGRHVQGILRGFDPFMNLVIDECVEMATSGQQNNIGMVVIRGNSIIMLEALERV
UniProt P09234, whole entry, looked up: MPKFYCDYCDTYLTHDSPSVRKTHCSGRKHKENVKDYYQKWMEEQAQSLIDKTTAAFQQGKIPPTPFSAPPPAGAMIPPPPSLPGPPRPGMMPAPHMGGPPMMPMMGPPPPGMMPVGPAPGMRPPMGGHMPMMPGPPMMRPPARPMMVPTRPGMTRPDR
UniProt P51532, whole entry, looked up: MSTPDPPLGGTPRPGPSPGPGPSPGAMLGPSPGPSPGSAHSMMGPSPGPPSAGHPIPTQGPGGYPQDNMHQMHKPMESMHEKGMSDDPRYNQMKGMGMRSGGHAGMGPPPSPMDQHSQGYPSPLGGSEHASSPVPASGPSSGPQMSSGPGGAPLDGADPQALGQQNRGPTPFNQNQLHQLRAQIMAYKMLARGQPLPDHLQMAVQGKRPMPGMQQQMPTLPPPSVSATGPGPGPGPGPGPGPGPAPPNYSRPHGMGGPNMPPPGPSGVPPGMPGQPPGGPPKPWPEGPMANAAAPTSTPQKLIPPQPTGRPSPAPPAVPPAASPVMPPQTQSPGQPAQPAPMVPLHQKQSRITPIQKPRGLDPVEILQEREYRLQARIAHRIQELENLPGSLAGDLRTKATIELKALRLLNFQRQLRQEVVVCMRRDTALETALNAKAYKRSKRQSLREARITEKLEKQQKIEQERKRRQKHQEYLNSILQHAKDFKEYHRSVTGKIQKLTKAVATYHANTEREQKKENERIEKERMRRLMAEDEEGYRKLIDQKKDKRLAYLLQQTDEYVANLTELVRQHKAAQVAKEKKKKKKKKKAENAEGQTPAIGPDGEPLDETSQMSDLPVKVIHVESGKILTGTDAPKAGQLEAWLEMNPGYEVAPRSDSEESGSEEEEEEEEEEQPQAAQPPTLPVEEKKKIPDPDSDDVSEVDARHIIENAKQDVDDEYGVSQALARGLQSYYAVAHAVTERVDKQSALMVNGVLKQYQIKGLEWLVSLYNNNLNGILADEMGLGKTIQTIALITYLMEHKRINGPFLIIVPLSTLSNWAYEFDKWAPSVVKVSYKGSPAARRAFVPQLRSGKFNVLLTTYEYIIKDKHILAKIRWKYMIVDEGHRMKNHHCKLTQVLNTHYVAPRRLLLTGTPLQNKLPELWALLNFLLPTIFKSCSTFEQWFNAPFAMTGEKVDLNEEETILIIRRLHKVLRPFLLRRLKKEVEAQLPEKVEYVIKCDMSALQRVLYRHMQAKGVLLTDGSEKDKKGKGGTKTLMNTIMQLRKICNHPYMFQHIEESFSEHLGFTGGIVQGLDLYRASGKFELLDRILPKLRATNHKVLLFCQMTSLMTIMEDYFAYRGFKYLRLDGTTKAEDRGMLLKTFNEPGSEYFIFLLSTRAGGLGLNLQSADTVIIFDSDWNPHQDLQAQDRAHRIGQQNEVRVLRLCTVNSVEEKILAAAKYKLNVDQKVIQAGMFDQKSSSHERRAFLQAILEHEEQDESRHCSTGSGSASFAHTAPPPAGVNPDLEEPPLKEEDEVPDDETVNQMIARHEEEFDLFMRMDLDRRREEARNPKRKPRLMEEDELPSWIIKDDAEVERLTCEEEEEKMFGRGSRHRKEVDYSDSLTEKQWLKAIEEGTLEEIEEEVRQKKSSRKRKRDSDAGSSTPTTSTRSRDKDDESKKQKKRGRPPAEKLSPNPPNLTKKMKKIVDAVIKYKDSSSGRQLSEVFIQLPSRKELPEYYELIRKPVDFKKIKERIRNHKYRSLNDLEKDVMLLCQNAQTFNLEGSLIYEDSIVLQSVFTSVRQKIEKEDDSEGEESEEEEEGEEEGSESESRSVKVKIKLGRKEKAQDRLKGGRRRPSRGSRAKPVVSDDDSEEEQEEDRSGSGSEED

Tests used:
Experiment in all cases: log2 fold change, soluble protein after heating vs DMSO (PISA); higher = thermal stabilisation; K562 lysate, 10 uM; active = over 0.2 and 3.5 SD of the protein, either way, in both replicates (recomputed)
vemurafenib = compound: CCCS(=O)(=O)Nc1ccc(F)c(C(=O)c2c[nH]c3ncc(-c4ccc(Cl)cc4)cc23)c1F [vemurafenib]
In short: (§1)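 Dounce homogenisation of K562 pellets in PBS pH 7.4 with 1 mM MgCl2 produced a crude extract, used at 1 mg/mL protein. Exposure to 10 μM compound lasted 30 min, and aliquots were then heated for 3 min across 48°C-58°C, pooled and brought to 0.5% NP-40 at 4°C. The supernatant after 21,000xg for 90 min was quantified by TMTpro 16plex LC-MS/MS with channel sums equalised. Duplicate values are given as log-two fold change in thermal stability relative to solvent controls.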

[1] = compound: CCCS(=O)(=O)Nc1ccc(F)c(C(=O)c2c[nH]c3ncc(Cl)cc23)c1F
In short: as §1

barasertib = compound: CCN(CCCOc1ccc2c(Nc3cc(CC(=O)Nc4cccc(F)c4)[nH]n3)ncnc2c1)CCOP(=O)(O)O [barasertib]
In short: as §1

[2] = compound: CC[C@@H]1C(=O)N(C)c2cnc(Nc3ccc(C(=O)NC4CCN(C)CC4)cc3OC)nc2N1C1CCCC1
In short: as §1

volasertib = compound: CC[C@@H]1C(=O)N(C)c2cnc(Nc3ccc(C(=O)N[C@H]4CC[C@H](N5CCN(CC6CC6)CC5)CC4)cc3OC)nc2N1C(C)C [volasertib]
In short: as §1

[3] = compound: CCn1c(C(=O)N(C2CC2)C2CC2)cc2c3c(ncn3C)c(Nc3cc(C)n(C)n3)nc21
In short: as §1

[4] = compound: CCn1cc(-c2ccnc3[nH]c(-c4cccc(CN(C)C)c4)cc23)c(-c2ccc(NC(=O)N(C)C)cc2)n1
In short: as §1

[5] = compound: CN1CCC(CNc2ccc3ncc(-c4cccc(OC(F)(F)F)c4)n3n2)CC1
In short: as §1

saracatinib = compound: CN1CCN(CCOc2cc(OC3CCOCC3)c3c(Nc4c(Cl)ccc5c4OCO5)ncnc3c2)CC1 [saracatinib]
In short: as §1

sotrastaurin = compound: CN1CCN(c2nc(C3=C(c4c[nH]c5ccccc45)C(=O)NC3=O)c3ccccc3n2)CC1 [sotrastaurin]
In short: as §1

Measured: log2 fold change

SNX15 (UniProt Q9NRS6)
inactive: vemurafenib -0.013 | [1] 0.036 | barasertib 0.012 | [2] 0.007 | volasertib -0.003 | [3] -0.02 | [4] -0.051 | [5] -0.03 | saracatinib 0.009 | sotrastaurin 0.026

SMG6 (UniProt Q86US8)
inactive: vemurafenib 0.12 | [1] -0.006 | barasertib 0.014 | [2] -0.139 | volasertib -0.031 | [3] 0.038 | [4] -0.16 | [5] 0.141 | saracatinib 0.036 | sotrastaurin 0.098

SMC1A (UniProt Q14683)
inactive: vemurafenib -0.008 | [1] 0.015 | barasertib 0.013 | [2] 0.004 | volasertib -0.008 | [3] -0.009 | [4] 0.064 | [5] -0.001 | saracatinib -0.001 | sotrastaurin 0.002

SORBS1 isoform 8 (UniProt Q9BX66)
inactive: vemurafenib -0.036 | [1] 0.031 | barasertib -0.015 | [2] 0.037 | volasertib -0.015 | [3] 0.021 | [4] 0.016 | [5] -0.009 | saracatinib 0.021 | sotrastaurin -0.003

SNX9 (UniProt Q9Y5X1)
inactive: vemurafenib -0.017 | [1] 0.001 | barasertib 0.028 | [2] -0.025 | volasertib -0.017 | [3] 0.035 | [4] -0.012 | [5] 0.013 | saracatinib -0.001 | sotrastaurin 0.02

SMARCA5 (UniProt O60264)
inactive: vemurafenib -0.008 | [1] -0.011 | barasertib 0.017 | [2] -0.037 | volasertib -0.015 | [3] 0.019 | [4] 0.024 | [5] -0.025 | saracatinib -0.002 | sotrastaurin 0.034

SPAG7 (UniProt O75391)
inactive: vemurafenib -0.001 | [1] 0.014 | barasertib -0.014 | [2] 0.12 | volasertib 0.032 | [3] -0.022 | [4] 0.047 | [5] 0.022 | saracatinib 0.034 | sotrastaurin -0.019

Looked up one by one from the list above (2):
SORBS1 isoform 8 (UniProt Q9BX66)
inactive: vemurafenib -0.036 | [1] 0.031 | barasertib -0.015 | [2] 0.037 | volasertib -0.015 | [3] 0.021 | [4] 0.016 | [5] -0.009 | saracatinib 0.021 | sotrastaurin -0.003

SMC1A (UniProt Q14683)
inactive: vemurafenib -0.008 | [1] 0.015 | barasertib 0.013 | [2] 0.004 | volasertib -0.008 | [3] -0.009 | [4] 0.064 | [5] -0.001 | saracatinib -0.001 | sotrastaurin 0.002

(listing goes on)

SNTB2 (UniProt Q13425)
inactive: vemurafenib 0.018 | [1] 0.02 | barasertib -0.036 | [2] 0.022 | volasertib -0.068 | [3] -0.013 | [4] 0.016 | [5] 0.011 | saracatinib 0.028 | sotrastaurin 0.074

SNRPB2 (UniProt P08579)
inactive: vemurafenib -0.029 | [1] 0.006 | barasertib 0.016 | [2] 0.02 | volasertib 0.009 | [3] -0.018 | [4] 0.014 | [5] 0 | saracatinib 0.005 | sotrastaurin 0.034

SMARCC2 (UniProt Q8TAQ2)
inactive: vemurafenib -0.001 | [1] 0.007 | barasertib 0.017 | [2] -0.009 | volasertib -0.023 | [3] -0.003 | [4] -0.012 | [5] -0.014 | saracatinib 0.029 | sotrastaurin 0.015

SNX27 (UniProt Q96L92)
inactive: vemurafenib 0.016 | [1] 0.034 | barasertib 0.045 | [2] -0.031 | volasertib -0.026 | [3] 0.055 | [4] -0.052 | [5] -0.025 | saracatinib 0.04 | sotrastaurin 0.031

SNRPB isoform 3 (UniProt P14678)
inactive: vemurafenib -0.028 | [1] 0.002 | barasertib 0.005 | [2] -0.007 | volasertib 0.024 | [3] 0.051 | [4] -0.07 | [5] 0.188 | saracatinib -0.021 | sotrastaurin 0.002

SNX8 (UniProt Q9Y5X2)
inactive: vemurafenib 0.019 | [1] -0.002 | barasertib -0.04 | [2] 0.033 | volasertib 0.013 | [3] -0.019 | [4] 0.029 | [5] -0.017 | saracatinib -0.027 | sotrastaurin 0.018

SNAPIN (UniProt O95295)
inactive: vemurafenib 0.044 | [1] 0 | barasertib 0.104 | [2] 0.036 | volasertib 0.035 | [3] -0.012 | [4] 0.015 | [5] 0.036 | saracatinib 0.007 | sotrastaurin 0.003

SNRPF (UniProt P62306)
inactive: vemurafenib 0.023 | [1] 0.002 | barasertib 0.045 | [2] 0.067 | volasertib 0.032 | [3] -0.051 | [5] 0.24 | saracatinib -0.044 | sotrastaurin 0.042
active: [4] -0.35

SNRPC (UniProt Q5TAL2)
inactive: vemurafenib -0.027 | [1] 0.003 | barasertib -0.107 | [2] 0.255 | volasertib 0.066 | [3] -0.021 | [4] -0.262 | [5] 0.005 | saracatinib 0.063 | sotrastaurin -0.047

SPAG5 (UniProt Q96R06)
inactive: vemurafenib -0.007 | [1] 0.04 | barasertib 0.025 | [2] -0.016 | volasertib -0.004 | [3] -0.01 | [4] -0.004 | [5] -0.174 | saracatinib 0.004 | sotrastaurin 0.009

SMARCE1 (UniProt Q969G3)
inactive: vemurafenib 0.004 | [1] 0.02 | barasertib -0.018 | [2] -0.004 | volasertib -0.02 | [3] 0.006 | [4] 0.082 | [5] -0.055 | saracatinib 0.032 | sotrastaurin 0.015

SNRNP48 (UniProt Q6IEG0)
inactive: vemurafenib 0.254 | [1] 0.058 | barasertib 0.014 | [2] -0.092 | volasertib -0.036 | [3] 0.052 | [4] -0.294 | [5] -0.025 | saracatinib 0.019 | sotrastaurin 0.016

SNRNP70 (UniProt P08621)
inactive: vemurafenib -0.021 | [1] 0.022 | barasertib -0.017 | [2] 0.001 | volasertib 0.028 | [3] -0.025 | [4] 0.051 | [5] 0.007 | saracatinib 0.001 | sotrastaurin -0.007

SNX12 isoform 1 (UniProt Q9UMY4)
inactive: vemurafenib 0.004 | [1] -0.003 | barasertib 0.009 | [2] 0.016 | volasertib 0.008 | [3] 0.007 | [4] 0.036 | [5] -0.014 | saracatinib -0.007 | sotrastaurin -0.009

SNRK (UniProt Q9NRH2)
inactive: vemurafenib 0.187 | [1] -0.055 | barasertib 0.126 | [2] 0.053 | volasertib 0.035 | [3] 0.038 | [4] 0.042 | [5] -0.001 | saracatinib -0.192 | sotrastaurin 0.044

SORBS3 (UniProt O60504)
inactive: vemurafenib -0.092 | [1] 0.067 | barasertib -0.032 | [2] 0.034 | volasertib -0.129 | [3] -0.05 | [4] -0.025 | [5] 0.004 | saracatinib 0.052 | sotrastaurin -0.011

SON isoform 9 (UniProt P18583)
inactive: vemurafenib 0.023 | [1] 0.009 | barasertib 0.039 | [2] 0.034 | volasertib 0.03 | [3] 0.023 | [4] 0.065 | [5] 0.074 | saracatinib 0.012 | sotrastaurin 0.044

SNRPD2 (UniProt P62316)
inactive: vemurafenib -0.008 | [1] -0.019 | barasertib 0.001 | [2] 0.058 | volasertib 0.033 | [3] 0.018 | [4] -0.083 | [5] 0.051 | saracatinib -0.021 | sotrastaurin 0.011

SMU1 isoform 2 (UniProt Q2TAY7)
inactive: vemurafenib 0.189 | [1] 0.147 | barasertib 0.035 | [2] 0.089 | volasertib 0.092 | [3] -0.127 | [4] -0.399 | [5] 0.136

SMARCC1 (UniProt Q92922)
inactive: vemurafenib 0.026 | [1] 0.011 | barasertib 0.002 | [2] -0.008 | volasertib -0.036 | [3] -0.005 | [4] -0.077 | [5] 0.028 | saracatinib 0.007 | sotrastaurin -0.013

SNRPG (UniProt P62308)
inactive: vemurafenib 0.036 | [1] 0.011 | barasertib 0.032 | [2] 0.061 | volasertib 0.037 | [3] -0.029 | [4] -0.203 | [5] 0.11 | saracatinib 0.023 | sotrastaurin 0.008

SNRPC (UniProt P09234)
inactive: vemurafenib 0 | [1] -0.018 | barasertib 0.041 | [2] 0.097 | volasertib 0.069 | [3] 0.02 | [4] 0.011 | [5] -0.014 | saracatinib 0.004 | sotrastaurin 0.009

SMARCA4 (UniProt P51532)
inactive: vemurafenib 0.011 | [1] 0.006 | barasertib 0.038 | [2] -0.058 | volasertib -0.024 | [3] 0.02 | [4] -0.044 | [5] -0.024 | saracatinib 0.011 | sotrastaurin 0.034
